Assay results reported in article PMC7850985.
These are yes or no findings as the source states them, for the method shown. Some entries that bind do so weakly or less than the wild type.

By UniProt entry, the sequences of proteins in these tests, tags left out. Residues count along the entry.
UniProt P35247, residues 199-375: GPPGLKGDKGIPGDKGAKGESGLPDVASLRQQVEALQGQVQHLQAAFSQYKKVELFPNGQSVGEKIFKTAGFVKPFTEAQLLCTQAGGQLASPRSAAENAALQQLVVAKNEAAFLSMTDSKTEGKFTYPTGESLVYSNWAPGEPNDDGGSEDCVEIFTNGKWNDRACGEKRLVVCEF
UniProt P11021, residues 19-654: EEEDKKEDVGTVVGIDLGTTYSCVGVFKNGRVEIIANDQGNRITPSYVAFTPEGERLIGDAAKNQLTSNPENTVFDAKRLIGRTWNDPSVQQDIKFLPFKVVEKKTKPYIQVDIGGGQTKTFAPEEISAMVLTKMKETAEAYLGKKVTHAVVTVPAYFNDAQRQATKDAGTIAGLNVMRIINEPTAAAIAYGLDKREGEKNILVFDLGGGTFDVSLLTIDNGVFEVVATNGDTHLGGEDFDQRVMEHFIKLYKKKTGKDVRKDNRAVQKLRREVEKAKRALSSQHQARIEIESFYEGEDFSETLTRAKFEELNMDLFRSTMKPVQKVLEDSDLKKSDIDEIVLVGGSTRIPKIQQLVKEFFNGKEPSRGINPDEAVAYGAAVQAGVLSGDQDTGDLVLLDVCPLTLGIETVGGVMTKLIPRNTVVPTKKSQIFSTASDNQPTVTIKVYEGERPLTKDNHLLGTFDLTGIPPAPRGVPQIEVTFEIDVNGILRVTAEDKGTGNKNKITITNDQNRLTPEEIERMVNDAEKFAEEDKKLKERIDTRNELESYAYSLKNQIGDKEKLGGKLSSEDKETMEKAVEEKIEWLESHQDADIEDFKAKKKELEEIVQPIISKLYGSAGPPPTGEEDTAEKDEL

Key:
[1] = target: recombinant fragment of human surfactant protein D (rfhSP-D) (human) (UniProt P35247); assay: condition: only with rfhSP-D bound to monoclonal antibodies specific to the CRD domain of SP-D; ELISA; rfhSP-D bound to monoclonal antibodies specific to the CRD domain of SP-D, then GRP78 (Figure 7A, Bar 4); set-up not told in the methods; both purified
[2] = target: recombinant fragment of human surfactant protein D (rfhSP-D) (human) (UniProt P35247); assay: ELISA; rfhSP-D (1 µg/ml in PBS) coated, blocked, incubated with GRP78 (1 µg/ml in PBS); probed with rabbit anti-human SP-D polyclonal antibodies (loss of antibody signal as read-out); both purified
[3] = target: human recombinant GRP78 (Glucose Regulated Protein of 78 kDa) (human) (UniProt P11021); assay: ELISA; GRP78 (1 µg/ml in PBS) coated; rfhSP-D (1 µg/ml in PBS) added with and without 5 mM CaCl2, or 10 mM EDTA; bound rfhSP-D probed with rabbit anti-human SP-D polyclonal antibodies; both purified

binding [1] | binding [2] | binding [3] | Substance
no binding | binds |  | human recombinant GRP78 (Glucose Regulated Protein of 78 kDa) (from UniProt P11021 19-654)
 |  | binds | recombinant fragment of human surfactant protein D (rfhSP-D) (from UniProt P35247 199-375) (domain or fragment)
